Results as given in PMC7286146.
Results are given in words; binding and its absence hold for the method and conditions named.

The chains behind the UniProt entries cited, without tags or fusion partners. Residues count along the entry.
UniProt P02769, residues 25-607: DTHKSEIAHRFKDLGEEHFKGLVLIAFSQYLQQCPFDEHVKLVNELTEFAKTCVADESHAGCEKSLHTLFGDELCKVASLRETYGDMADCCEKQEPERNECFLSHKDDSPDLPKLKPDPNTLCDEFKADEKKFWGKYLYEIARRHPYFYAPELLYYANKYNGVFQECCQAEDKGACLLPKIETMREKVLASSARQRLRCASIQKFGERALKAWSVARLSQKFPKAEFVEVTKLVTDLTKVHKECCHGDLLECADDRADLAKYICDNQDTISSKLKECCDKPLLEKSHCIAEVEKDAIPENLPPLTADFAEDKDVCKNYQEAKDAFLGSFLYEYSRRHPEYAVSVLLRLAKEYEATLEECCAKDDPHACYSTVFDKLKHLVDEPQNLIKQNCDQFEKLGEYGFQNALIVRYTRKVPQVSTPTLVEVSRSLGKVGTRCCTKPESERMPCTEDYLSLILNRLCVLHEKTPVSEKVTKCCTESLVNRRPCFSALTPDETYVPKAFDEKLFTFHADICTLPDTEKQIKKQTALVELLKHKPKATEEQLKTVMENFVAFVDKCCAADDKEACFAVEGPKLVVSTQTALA

Molecular target: Bovine serum albumin (bovine) (UniProt P02769)
Assay: dynamic light scattering; BSA dispersed in saline (0.9% NaCl) at pH 7.0, 22°C; size distribution in solution; both purified

Bovine serum albumin (from UniProt P02769 25-607)
binding: no binding (condition: at pH 7.0 in saline)
